From PMC7360774
These are yes or no findings as the source states them, for the method shown. In cells and extracts the contact can be indirect. Some entries that bind do so weakly or less than the wild type. For some assays here: Sequences can lack the tags named with a protein.

By UniProt entry, the sequences of proteins in these tests, tags left out.
UniProt P35579: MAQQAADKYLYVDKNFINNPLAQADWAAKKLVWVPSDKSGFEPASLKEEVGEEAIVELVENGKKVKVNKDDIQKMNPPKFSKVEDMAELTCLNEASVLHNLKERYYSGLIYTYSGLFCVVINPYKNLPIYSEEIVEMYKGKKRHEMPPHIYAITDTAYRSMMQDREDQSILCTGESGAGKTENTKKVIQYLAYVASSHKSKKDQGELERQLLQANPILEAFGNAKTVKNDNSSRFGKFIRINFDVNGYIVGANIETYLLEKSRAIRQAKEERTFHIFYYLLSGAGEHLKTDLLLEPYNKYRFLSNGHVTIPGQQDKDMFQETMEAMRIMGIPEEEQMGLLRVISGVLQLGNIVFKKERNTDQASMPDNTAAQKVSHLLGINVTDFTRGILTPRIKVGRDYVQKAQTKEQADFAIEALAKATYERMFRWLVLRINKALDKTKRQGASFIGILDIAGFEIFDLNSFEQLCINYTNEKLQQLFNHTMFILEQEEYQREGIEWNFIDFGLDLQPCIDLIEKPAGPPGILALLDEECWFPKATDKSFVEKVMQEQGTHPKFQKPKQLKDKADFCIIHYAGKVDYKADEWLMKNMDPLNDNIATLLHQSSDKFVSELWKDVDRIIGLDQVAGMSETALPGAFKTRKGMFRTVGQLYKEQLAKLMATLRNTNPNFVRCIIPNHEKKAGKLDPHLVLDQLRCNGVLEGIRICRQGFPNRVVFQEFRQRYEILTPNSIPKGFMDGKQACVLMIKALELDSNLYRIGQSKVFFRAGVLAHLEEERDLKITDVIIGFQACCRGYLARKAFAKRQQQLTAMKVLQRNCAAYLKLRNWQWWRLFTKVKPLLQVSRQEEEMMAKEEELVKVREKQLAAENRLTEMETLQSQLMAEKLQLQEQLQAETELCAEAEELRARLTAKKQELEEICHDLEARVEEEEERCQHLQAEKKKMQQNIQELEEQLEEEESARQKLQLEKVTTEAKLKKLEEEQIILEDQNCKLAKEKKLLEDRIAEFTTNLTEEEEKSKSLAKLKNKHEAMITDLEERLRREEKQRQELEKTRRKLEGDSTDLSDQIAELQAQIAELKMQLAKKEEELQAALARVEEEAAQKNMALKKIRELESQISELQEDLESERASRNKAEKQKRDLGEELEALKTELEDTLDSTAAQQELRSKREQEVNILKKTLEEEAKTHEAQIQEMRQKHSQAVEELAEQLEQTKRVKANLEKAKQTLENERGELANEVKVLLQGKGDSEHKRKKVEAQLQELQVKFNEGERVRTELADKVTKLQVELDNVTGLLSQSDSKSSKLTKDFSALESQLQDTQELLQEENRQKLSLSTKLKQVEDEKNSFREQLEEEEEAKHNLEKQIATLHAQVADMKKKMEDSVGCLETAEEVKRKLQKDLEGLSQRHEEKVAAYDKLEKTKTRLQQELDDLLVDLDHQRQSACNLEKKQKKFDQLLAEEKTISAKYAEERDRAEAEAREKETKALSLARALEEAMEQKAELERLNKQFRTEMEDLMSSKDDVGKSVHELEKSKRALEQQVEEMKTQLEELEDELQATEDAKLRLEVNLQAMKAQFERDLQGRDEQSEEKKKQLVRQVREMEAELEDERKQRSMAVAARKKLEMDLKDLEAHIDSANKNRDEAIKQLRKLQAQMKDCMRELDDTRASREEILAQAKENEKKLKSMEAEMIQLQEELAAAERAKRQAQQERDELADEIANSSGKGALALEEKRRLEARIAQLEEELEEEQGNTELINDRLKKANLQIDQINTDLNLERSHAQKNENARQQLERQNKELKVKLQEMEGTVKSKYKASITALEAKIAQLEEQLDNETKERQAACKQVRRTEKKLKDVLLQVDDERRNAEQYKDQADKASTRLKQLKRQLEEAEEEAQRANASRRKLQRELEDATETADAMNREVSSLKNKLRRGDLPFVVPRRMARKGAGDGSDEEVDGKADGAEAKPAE

Experiments:
[1] = biological target: T1, NudC-like protein 2 (NudCL2), endogenous (human (endogenous in A549)) (UniProt Q8WVJ2); assay: co-IP; endogenous proteins, A549 whole-cell extracts in TBSN buffer (20 mM Tris pH 8.0, 150 mM NaCl, 0.5% Nonidet P-40, 5 mM EGTA, 1.5 mM EDTA); immunoprecipitation with the indicated antibodies, western blot
T1 sequence: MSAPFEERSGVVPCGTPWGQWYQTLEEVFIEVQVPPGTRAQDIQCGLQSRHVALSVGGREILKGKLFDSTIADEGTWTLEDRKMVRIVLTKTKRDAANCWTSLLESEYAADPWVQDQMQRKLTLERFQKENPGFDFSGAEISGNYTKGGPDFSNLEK

GST-NudCL2 (human) = biological target: T2, GST-NudCL2 (human) (UniProt Q8WVJ2); assay: pull-down; purified GST or GST-NudCL2 incubated with A549 cell lysates; immunoblot with anti-Myosin-9 antibody; only the target purified
T2 sequence: T1 sequence

- binding [1]: binds
- binding (GST-NudCL2 (human)): binds
Substance: myosin-9 (endogenous, A549) (from UniProt P35579 1-1960)
